According to patent US20250110130A1, “EX VIVO PROTEASE ACTIVATION AND DETECTION” (SunBird Bio, Inc., priority 2021, published 2025):
Some of these results come from one statement about several compounds together. For at least one compound, name, drawing or mass did not settle the structure.

Test system: protease activity sensed by Probe #102 (cathepsin L, CTSL) in K2 EDTA plasma
Assay: Protease inhibitor profiling of Probe #102 cleavage in NASH and healthy plasma

## CC(C)C[C@H](NC(=O)[C@H]1O[C@@H]1C(=O)O)C(=O)NCCCCN=C(N)N [Probe E64, E64]
  decrease in the RFU signal contrast between NASH and healthy samples: greater than 6 fold
